Laboratory results: patent US20030180823A1, “Individualization of therapy with antihistamines” (Xanthus Life Sciences, Inc., priority 2001, published 2003)

Test system: 1X-Ab
Assay: Competitive antigen ELISA, cross-reactivity of 1X-Ab
Assay type: binding, rabbit
Conditions: for [1X] × 10^6 determined by ELISA: fixed 1X concentration of 3 × 10^−6 M; for apparent increase of 1X concentration: fixed 1X 3×10^−6 M

For `Cn1c(=O)[nH]c2[nH]c(=O)[nH]c2c1=O` [1-Methyluric acid], the “[1X] × 10^6 determined by ELISA” value (1U:1X ratio 0.50) was 2.75 × 10^6 (M), the “[1X] × 10^6 determined by ELISA” value (1U:1X ratio 1.00) was 3.25 × 10^6 (M) and the “[1X] × 10^6 determined by ELISA” value (1U:1X ratio 1.50) was 3.25 × 10^6 (M). For the same compound, the “[1X] × 10^6 determined by ELISA” value (1U:1X ratio 2.00) was 3.60 × 10^6 (M), the “[1X] × 10^6 determined by ELISA” value (1U:1X ratio 2.50) was 3.65 × 10^6 (M) and the “[1X] × 10^6 determined by ELISA” value (1U:1X ratio 3.00) was 3.95 × 10^6 (M). The “[1X] × 10^6 determined by ELISA” value (1U:1X ratio 4.00) was 4.20 × 10^6 (M), the “[1X] × 10^6 determined by ELISA” value (1U:1X ratio 5.00) was 4.30 × 10^6 (M) and the “[1X] × 10^6 determined by ELISA” value (1U:1X ratio 6.00) was 4.50 × 10^6 (M). For the same compound, the “[1X] × 10^6 determined by ELISA” value (1U:1X ratio 8.00) was 4.30 × 10^6 (M), the “apparent increase of 1X concentration” value (1U:1X ratio of 2.5) was 22% and the “apparent increase of 1X concentration” value (1U:1X ratio of 3.0) was 32%.
